{"source": "PubChem BioAssay AID1224830 (NIAID, 2016)", "assay": "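Genes whose knock-down alters the TNF-alpha reporter response to LPS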 (primary screen)", "cells": "human THP-1 monocytic leukaemia cells, TNF dual-luciferase reporter clone, PMA-differentiated to macrophage-like cells", "knock-down reagent": "siRNA pool against human genes, 50 nM", "timing": "LPS for 4 h, given about 3 days after siRNA transfection", "treatment": "bacterial LPS (TLR4 ligand), 10 ng/ml", "read-out": "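Ratio of firefly to renilla light, scaled to the plate median and expressed as a robust z-score per replicate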", "scale": "TNF reporter robust z-score: higher = stronger TNF reporter response to LPS", "call rule": "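a well is active when its z-score exceeds 2.8 or falls below -1.5; control wells carry no call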", "note": "Shown is one part, drawn at random, of about 18,000 reagents tested. Of all reagents, about 2,900 (16%) were called active. 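Calls are made per well; low scores hint the gene aids the LPS response, high scores that it dampens it.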 Unmarked entries are inactive. Repeated entries: four replicate wells of each siRNA pool."}
{"gene symbol": "PRRG3 (GeneID 79057)", "TNF reporter robust z-score": 0.61}
{"gene symbol": "PRRG3 (GeneID 79057)", "TNF reporter robust z-score": 0.51}
{"gene symbol": "PRRG3 (GeneID 79057)", "TNF reporter robust z-score": -0.91}
{"gene symbol": "PRRG3 (GeneID 79057)", "TNF reporter robust z-score": 0.93}
{"gene symbol": "KLF4 (GeneID 9314)", "TNF reporter robust z-score": -0.45}
{"gene symbol": "KLF4 (GeneID 9314)", "TNF reporter robust z-score": -0.24}
{"gene symbol": "KLF4 (GeneID 9314)", "TNF reporter robust z-score": -0.66}
{"gene symbol": "KLF4 (GeneID 9314)", "TNF reporter robust z-score": -1.02}
{"gene symbol": "GARS1 (GeneID 2617)", "TNF reporter robust z-score": -0.18}
{"gene symbol": "GARS1 (GeneID 2617)", "TNF reporter robust z-score": 1.99}
{"gene symbol": "GARS1 (GeneID 2617)", "TNF reporter robust z-score": 1.49}
{"gene symbol": "GARS1 (GeneID 2617)", "TNF reporter robust z-score": "2.96 (active)"}
{"gene symbol": "PPARG (GeneID 5468)", "TNF reporter robust z-score": 0.74}
{"gene symbol": "PPARG (GeneID 5468)", "TNF reporter robust z-score": 1.39}
{"gene symbol": "PPARG (GeneID 5468)", "TNF reporter robust z-score": 0.93}
{"gene symbol": "PPARG (GeneID 5468)", "TNF reporter robust z-score": 1.41}
{"gene symbol": "PDCD2 (GeneID 5134)", "TNF reporter robust z-score": "-1.58 (active)"}
{"gene symbol": "PDCD2 (GeneID 5134)", "TNF reporter robust z-score": "-1.73 (active)"}
{"gene symbol": "PDCD2 (GeneID 5134)", "TNF reporter robust z-score": "-2.09 (active)"}
{"gene symbol": "PDCD2 (GeneID 5134)", "TNF reporter robust z-score": -1.42}
{"gene symbol": "ARHGEF26 (GeneID 26084)", "TNF reporter robust z-score": -0.25}
{"gene symbol": "ARHGEF26 (GeneID 26084)", "TNF reporter robust z-score": 0.1}
{"gene symbol": "ARHGEF26 (GeneID 26084)", "TNF reporter robust z-score": -0.46}
{"gene symbol": "ARHGEF26 (GeneID 26084)", "TNF reporter robust z-score": 1.16}
{"gene symbol": "VCX3A (GeneID 51481)", "TNF reporter robust z-score": -1.39}
{"gene symbol": "VCX3A (GeneID 51481)", "TNF reporter robust z-score": -1.17}
{"gene symbol": "VCX3A (GeneID 51481)", "TNF reporter robust z-score": -0.38}
{"gene symbol": "VCX3A (GeneID 51481)", "TNF reporter robust z-score": -0.43}
{"gene symbol": "MXD4 (GeneID 10608)", "TNF reporter robust z-score": -0.45}
{"gene symbol": "MXD4 (GeneID 10608)", "TNF reporter robust z-score": 0.64}
{"gene symbol": "MXD4 (GeneID 10608)", "TNF reporter robust z-score": -0.69}
{"gene symbol": "MXD4 (GeneID 10608)", "TNF reporter robust z-score": -0.97}
